Publication PMC11205155
Results are given in words; binding and its absence hold for the method and conditions named.

Tests used:
Test in all cases: two-hybrid; AD fusions (pGADT7) in S. cerevisiae Y187 mated with BD fusions (pGBKT7) in Y2HGold; diploids spotted at 5 x 10^2, 5 x 10^3 and 5 x 10^4 cells on double-dropout (SDM/-Leu/-Trp/X-α-Gal/AbA) and quadruple-dropout (SDM/-Leu/-Trp/-Ade/-His/X-α-Gal/AbA) plates, 3 days at 30 °C
[1] = target: T1, Rad18 of Beauveria bassiana (Beauveria bassiana) (UniProt J5JS29)
T1 sequence: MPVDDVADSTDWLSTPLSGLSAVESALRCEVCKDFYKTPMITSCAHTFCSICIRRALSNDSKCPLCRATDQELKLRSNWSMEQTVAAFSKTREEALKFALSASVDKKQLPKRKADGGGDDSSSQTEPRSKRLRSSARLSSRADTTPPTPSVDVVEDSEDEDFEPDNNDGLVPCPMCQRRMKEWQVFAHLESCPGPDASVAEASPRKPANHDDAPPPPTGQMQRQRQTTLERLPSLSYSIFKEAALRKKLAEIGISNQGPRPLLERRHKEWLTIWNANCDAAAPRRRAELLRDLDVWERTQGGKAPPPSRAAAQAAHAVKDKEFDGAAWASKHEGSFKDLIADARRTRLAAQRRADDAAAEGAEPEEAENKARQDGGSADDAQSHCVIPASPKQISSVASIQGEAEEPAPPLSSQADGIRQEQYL

[2] = target: T2, WC2 of Beauveria bassiana (Beauveria bassiana) (UniProt J5JYA0)
T2 sequence: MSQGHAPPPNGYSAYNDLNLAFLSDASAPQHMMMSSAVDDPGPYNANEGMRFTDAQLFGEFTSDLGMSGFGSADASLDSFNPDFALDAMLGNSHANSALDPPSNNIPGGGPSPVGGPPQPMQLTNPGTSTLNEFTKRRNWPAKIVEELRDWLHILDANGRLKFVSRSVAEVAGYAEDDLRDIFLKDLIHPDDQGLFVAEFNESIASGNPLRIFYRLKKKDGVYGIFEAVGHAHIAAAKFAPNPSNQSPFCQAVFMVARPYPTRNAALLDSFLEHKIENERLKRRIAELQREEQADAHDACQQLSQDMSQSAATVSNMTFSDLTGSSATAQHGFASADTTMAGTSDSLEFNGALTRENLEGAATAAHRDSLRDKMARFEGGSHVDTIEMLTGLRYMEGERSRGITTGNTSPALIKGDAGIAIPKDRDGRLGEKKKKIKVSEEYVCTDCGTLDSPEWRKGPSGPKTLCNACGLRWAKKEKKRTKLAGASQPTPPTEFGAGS

[3] = target: T3, Rad6 of Beauveria bassiana (Beauveria bassiana) (UniProt J4KQN3)
T3 sequence: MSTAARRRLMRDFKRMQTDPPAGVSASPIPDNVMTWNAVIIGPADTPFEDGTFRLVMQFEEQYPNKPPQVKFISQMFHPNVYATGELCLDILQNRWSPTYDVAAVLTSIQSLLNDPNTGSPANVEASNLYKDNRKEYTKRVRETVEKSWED

[4] = target: T4, Rad1 of Beauveria bassiana (Beauveria bassiana) (UniProt J4VYF0)
T4 sequence: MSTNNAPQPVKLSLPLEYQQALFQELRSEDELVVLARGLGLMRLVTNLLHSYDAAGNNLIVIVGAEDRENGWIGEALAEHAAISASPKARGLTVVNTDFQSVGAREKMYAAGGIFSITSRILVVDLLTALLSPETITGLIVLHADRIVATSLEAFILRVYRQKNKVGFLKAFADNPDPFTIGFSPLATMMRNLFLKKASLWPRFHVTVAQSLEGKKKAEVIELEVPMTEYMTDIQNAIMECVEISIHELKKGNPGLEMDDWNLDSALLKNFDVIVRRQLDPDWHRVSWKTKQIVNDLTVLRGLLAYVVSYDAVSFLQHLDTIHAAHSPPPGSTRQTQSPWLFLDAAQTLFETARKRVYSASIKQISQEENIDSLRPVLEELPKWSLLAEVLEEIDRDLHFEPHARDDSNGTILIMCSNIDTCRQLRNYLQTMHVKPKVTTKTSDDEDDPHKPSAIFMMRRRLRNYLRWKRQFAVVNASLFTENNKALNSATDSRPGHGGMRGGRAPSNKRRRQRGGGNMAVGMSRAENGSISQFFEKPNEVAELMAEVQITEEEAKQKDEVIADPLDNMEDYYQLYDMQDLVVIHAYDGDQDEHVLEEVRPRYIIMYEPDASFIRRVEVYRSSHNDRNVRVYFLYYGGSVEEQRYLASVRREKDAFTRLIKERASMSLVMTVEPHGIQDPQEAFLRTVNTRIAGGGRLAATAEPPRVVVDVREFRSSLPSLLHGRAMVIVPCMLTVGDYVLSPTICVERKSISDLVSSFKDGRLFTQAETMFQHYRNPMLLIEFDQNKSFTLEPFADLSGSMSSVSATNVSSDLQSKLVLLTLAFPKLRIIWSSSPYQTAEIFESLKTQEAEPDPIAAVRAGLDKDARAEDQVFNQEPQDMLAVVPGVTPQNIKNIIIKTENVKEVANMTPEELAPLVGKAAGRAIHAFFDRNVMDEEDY

Measured: binding

Rad16A of Beauveria bassiana
no binding: [1] | [2] | [3] | [4]

Rad16B of Beauveria bassiana
no binding: [1] | [2] | [3] | [4]

Rad5 ortholog of Beauveria bassiana
no binding: [1] | [2] | [3] | [4]
